Measurements published in paper PMC5550728.
These are yes or no findings as the source states them, for the method shown. Some entries that bind do so weakly or less than the wild type.

By UniProt entry, the sequences of proteins in these tests, tags left out. Residues count along the entry.
UniProt O15537: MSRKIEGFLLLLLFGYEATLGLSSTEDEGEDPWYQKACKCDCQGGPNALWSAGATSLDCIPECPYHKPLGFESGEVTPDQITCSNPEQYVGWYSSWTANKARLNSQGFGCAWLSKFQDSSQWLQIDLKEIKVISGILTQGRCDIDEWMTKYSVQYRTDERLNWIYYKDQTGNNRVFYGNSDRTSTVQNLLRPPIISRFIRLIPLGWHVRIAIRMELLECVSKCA
UniProt O60840, residues 1-500: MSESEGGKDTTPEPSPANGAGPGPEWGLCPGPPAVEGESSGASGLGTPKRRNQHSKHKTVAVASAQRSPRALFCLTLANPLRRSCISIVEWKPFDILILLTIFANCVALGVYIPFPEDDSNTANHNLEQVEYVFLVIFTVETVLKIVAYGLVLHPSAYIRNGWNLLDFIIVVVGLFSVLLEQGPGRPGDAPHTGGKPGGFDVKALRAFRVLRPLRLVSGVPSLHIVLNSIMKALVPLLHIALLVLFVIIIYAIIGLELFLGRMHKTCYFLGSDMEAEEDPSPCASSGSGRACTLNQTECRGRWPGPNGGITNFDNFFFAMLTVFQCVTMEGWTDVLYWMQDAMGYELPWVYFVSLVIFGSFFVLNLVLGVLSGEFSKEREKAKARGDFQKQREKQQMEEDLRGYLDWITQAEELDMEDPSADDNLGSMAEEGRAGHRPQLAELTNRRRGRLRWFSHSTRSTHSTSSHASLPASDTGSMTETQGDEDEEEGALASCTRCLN

Biological target: human full-length RS1 fused to the GAL4 DNA binding domain (pBind-RS1) (human) (UniProt O15537)
Assay: two-hybrid; mammalian two-hybrid (luciferase reporter) in Cos1 cells: pBind-RS1 (GAL4 DNA binding domain, bait), pACT-Cav1.4-N terminal (VP16 activation domain), pG5Luc, 100 ng each; controls with empty pBind or pACT; n = 6

“human Cav1.4 N-terminal fragment fused to the VP16 activation domain (pACT-Cav1.4-N terminal) (from UniProt O60840 1-500) (domain or fragment)” was tested, and the binding was “binds”.
